Laboratory results: PubChem BioAssay AID1508597 (Cure First, 2020)

- Purpose: 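Genes whose silencing sensitises or protects ovarian cancer cells against rucaparib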 (primary screen)
- Cells: human ovarian carcinoma lines grown from tumours: OCI-P5x (papillary serous) and OCI-C5x (clear cell)
- Reagents: siRNA pool against human genes, 1.25 pmol siRNA per well
- Time to read-out: 72 h or 96 h, depending on the cell culture
- Treatment: rucaparib 20 µM (about IC30) or vehicle, present until read-out
- Rucaparib or vehicle: Rucaparib
- Cell line: OCI-C5x (clear cell)
- Read-out: 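Luminescent ATP-based viability assay read 72 or 96 h after transfection, depending on culture, given as normalised percent viability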
- Scale: viability, normalised: higher = more viable cells remaining
- Hit rule: 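a well counts as a hit if its normalised viability is under 80 percent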
- Calls: active = viability under 80%; inactive = viability 80% or more
This is a random part of the about 2,100 reagents, under one of the conditions tested. 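Calls flag viability under 80% in either arm, not effects specific to rucaparib; the reference for percent is not stated.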 Reagent sequences are not shown. Not stated in the record: the 100% reference.

What is on record for EZH2, technical replicate 1?
viability, normalised (%): 52.1; Outcome: active

What did the screen give for EZH2, technical replicate 2?
viability, normalised (%): 40; Outcome: active

Which result is listed for EZH2, technical replicate 3?
viability, normalised (%): 48.3; Outcome: active

With ASNS, technical replicate 1, how do the results read?
viability, normalised (%): 76.1; Outcome: active

For ASNS, technical replicate 2, what was measured?
viability, normalised (%): 59.7; Outcome: active

For ASNS, technical replicate 3, what was measured?
viability, normalised (%): 45; Outcome: active

With EPHB3, technical replicate 1, how do the results read?
viability, normalised (%): 42.9; Outcome: active

Which result is listed for EPHB3, technical replicate 2?
viability, normalised (%): 45.4; Outcome: active

For EPHB3, technical replicate 3, what was measured?
viability, normalised (%): 51.9; Outcome: active

For PRKAB2, technical replicate 1, how do the results read?
viability, normalised (%): 56.4; Outcome: active

With PRKAB2, technical replicate 2, what does the deposit list?
viability, normalised (%): 58.5; Outcome: active

With PRKAB2, technical replicate 3, how do the results read?
viability, normalised (%): 77.4; Outcome: active

For TYRO3, technical replicate 1, how do the results read?
viability, normalised (%): 63.3; Outcome: active

For TYRO3, technical replicate 2, how do the results read?
viability, normalised (%): 65.5; Outcome: active

For TYRO3, technical replicate 3, what was measured?
viability, normalised (%): 62; Outcome: active

What is on record for HMGN2, technical replicate 1?
viability, normalised (%): 57.2; Outcome: active

With HMGN2, technical replicate 2, what does the deposit list?
viability, normalised (%): 50.6; Outcome: active

With HMGN2, technical replicate 3, what was measured?
viability, normalised (%): 49.3; Outcome: active

With RAD23B, technical replicate 1, what does the deposit list?
viability, normalised (%): 36.7; Outcome: active

With RAD23B, technical replicate 2, what does the deposit list?
viability, normalised (%): 33.2; Outcome: active

With RAD23B, technical replicate 3, what was measured?
viability, normalised (%): 47.1; Outcome: active

Quoted from the listing (3 entries):
HMGN2, technical replicate 3 → viability, normalised (%): 49.3; Outcome: active
RAD23B, technical replicate 1 → viability, normalised (%): 36.7; Outcome: active
RAD23B, technical replicate 2 → viability, normalised (%): 33.2; Outcome: active

The listing continues:
What is on record for ERBB4, technical replicate 1?
viability, normalised (%): 48.3; Outcome: active

For ERBB4, technical replicate 2, how do the results read?
viability, normalised (%): 43.1; Outcome: active

With ERBB4, technical replicate 3, what does the deposit list?
viability, normalised (%): 40.8; Outcome: active

For H4C15, technical replicate 1, how do the results read?
viability, normalised (%): 45.7; Outcome: active

How did the screen score H4C15, technical replicate 2?
viability, normalised (%): 35.4; Outcome: active

How did the screen score H4C15, technical replicate 3?
viability, normalised (%): 48.6; Outcome: active

How did the screen score PRKXP1, technical replicate 1?
viability, normalised (%): 47.1; Outcome: active

What is on record for PRKXP1, technical replicate 2?
viability, normalised (%): 64.1; Outcome: active

For PRKXP1, technical replicate 3, how do the results read?
viability, normalised (%): 61.8; Outcome: active

With PDE6H, technical replicate 1, what was measured?
viability, normalised (%): 69.8; Outcome: active

With PDE6H, technical replicate 2, what does the deposit list?
viability, normalised (%): 73.2; Outcome: active

What did the screen give for PDE6H, technical replicate 3?
viability, normalised (%): 64; Outcome: active
